At least one structure is not confirmed: it was looked up by name or label, or the drawing left a doubt.
Legend:
Assay type in all cases: cell-based
[1] = tested on: mouse melan-A melanocytes; assay: In vitro depigmentation of melan-A melanocytes; conditions: 2 uM or 10 uM, DMSO-based carrier, 1-5 days (average 1.5 days), FIG. 12B
Experimental: Murine Melan-A (Bennett et al., 1987) cells were obtained from the Wellcome Trust Functional Genomics Cell Bank. Melan-A cells were grown in RPMI 1640 supplemented with 10% FBS or FetalPlex (Gemini Bio-Products, #100-602), 100,000 U/L penicillin, 100 mg/L streptomycin sulphate, 100× Glutamax, and 200 nM TPA.
(§1) The ability of 2 uM or 10 uM ASS, Usnic acid, 4-hexylresorcinol, candesartan, Nigericin, and Ginkgolic acid to depigment was evaluated in mouse B16 melanoma cells and melan-A melanocytes. A DMSO-based carrier solution was used, and the experiments carried out for 1-5 days, with an average of 1.5 days. 4-n-Butylresorcinol, N-Acetylcystein (NAC), and Phenylthiourea (PTU), were used as a positive control, and DMSO as a negative control.

[2] = tested on: human skin explants; assay: Depigmentation of human skin explants by NNT activators; conditions: after 36 hours, DMSO-based carrier, FIGS. 13A-B
Experimental: Skin samples considered surgical waste were obtained de-identified from healthy donors (IRB #2013P000093) undergoing reconstructive surgery, according to institutional regulations. Full thickness human abdominal skin explants were cultured in petri dishes with a solid phase and liquid phase phenol red free DMEM medium containing 20% penicillin/streptomycin/glutamine, 5% fungizone (Gibco), and 10% fetal bovine serum. Compounds were applied strictly on top of the explants, making sure no drip occurred into the underlying media. For UV irradiation experiments, a UV lamp (UV Products) was used at 1000 mJ/cm^2 UVB.
The ability of ASS, Usnic acid, 4-hexylresorcinol, candesartan, Nigericin, elaidylphosphocholine, hexitidine, naproxol, and Ginkgolic acid to depigment skin was tested in human skin explants. A DMSO-based carrier solution was used. DMSO was used as a negative control. […]

[3] = tested on: mouse B16 melanoma cells; assay: In vitro depigmentation of B16 melanoma cells; conditions: 2 uM or 10 uM, DMSO-based carrier, 1-5 days (average 1.5 days), FIG. 12A
Experimental: as §1

[4] = tested on: NNT; assay: qRT-PCR of NNT after forskolin; conditions: primary human melanocytes, 20 μM for 2 hours

| Compound | ability to depigment [1] | ability to depigment skin [2] | ability to depigment [3] | NNT expression levels [4] |
| --- | --- | --- | --- | --- |
| CC(=O)c1c(O)c(C)c(O)c2c1OC1=CC(=O)C(C(C)=O)C(=O)C12C (stereo not shown) [Usnic acid, usnic acid] | depigmenting effects | depigmenting effects | depigmenting effects |  |
| C=C[C@@]1(C)CC(=O)[C@]2(O)[C@@]3(C)[C@@H](O)CCC(C)(C)[C@@H]3[C@H](O)[C@H](OC(C)=O)[C@@]2(C)O1 [forskolin] |  |  |  | did not affect NNT expression levels |
